Several values for one entry are separate records, joined by “and”; a condition that tells them apart may be missing. The calls were made as follows: active = viability on the fitted dose curve at most 10% of control; inactive = the rest. Identical values can stand only once. Further values from the same series stand in other lists.
Test system: OVCAR-5 complex spheroids with HUVEC/MSC, viability, % test/control
Assay: Anticancer human tumor OVCAR-5 cell line growth inhibition [AhR];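 also: spheroids exposed to compounds for 7 days; 100% = DMSO vehicle control wells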
Conditions: stronger effect = lower value
Description: Multicellular complex tumor spheroid response to aryl hydrocarbon receptor antagonists in combination with a variety of drugs and investigational agents in selected tumor cell lines
The current study was undertaken to assess response to aryl hydrocarbon receptor antagonists in combination with standard-of-care drugs and investigational agents in solid tumor complex spheroid models. Complex spheroids include a stromal component modeled by human endothelial cells (HUVEC) and fibroblasts modeled by human mesenchymal stem cells (MSCs). The concentration ranges selected for each drug and investigational agent were based upon clinically achievable concentrations if the clinical Cmax of the agent was known.
Compounds. The drugs and investigational agents: BAY 2416964 (NSC825713), GNF351 (NSC835774), CH-223191 (NSC835775), CPI-455 (NSC825282), aza-TdCyd (NSC777586), decitabine (NSC127716), belinostat (NSC758774), entinostat (NSC756642), pevonedistat (NSC761192), tazemetostat (NSC777109), talazoparib (NSC765396), olaparib (NSC753686), selinexor (NSC780203), nedisertib (M3814, NSC802822), bortezomib (NSC756655), venetoclax (NSC766270), doxorubicin (NSC123127), elimusertib (BAY189344, NSC800525), ceralasertib (AZD6738, NSC777638), TAK-243 (NSC785004), alisertib (NSC759677), etoposide (NSC141540), topotecan (NSC609699), eribulin (NSC707389), gemcitabine (NSC613327), carboplatin (NSC241240), cisplatin (NSC119875), and SN-38 (NSC673596) were obtained from the National Cancer Institute (NCI) Developmental Therapeutics Program Chemical Repository (32). The FDA-approved anticancer drug set is available from the Developmental Therapeutics Program at https://dtp.cancer.gov/organization/dscb/obtaining/available plates.htm. […] The stock solutions were prepared in dimethyl sulfoxide (DMSO, Sigma-Aldrich, St. Louis, MO, cat. D2650), except for the platinum compounds which were prepared in saline (Quality Biological, Gaithersburg, MD, cat. 114-055-101), at 800-fold the tested concentration and stored at -70 degrees C prior to their use. All drugs and investigational agents were tested over a range starting from a high concentration at or near the clinical Cmax and decreasing in half-log increments. If the clinical Cmax for an agent had not been determined, the highest concentration tested was 10 microM (Table 1).
Cell Culture. All cells were maintained in an incubator at 37 degrees C and 5% CO2 with 95% humidity. The PDC lines were cultured according to standard operating procedures established by the NCI PDMR (https://pdmr.cancer.gov). Briefly, all PDCs were thawed and cultured in Matrigel-coated flasks prepared with a working solution of 1X Ham's F-12 nutrient mix, without supplementation (Invitrogen, Waltham, MA, cat. 11765054), 100 U/mL penicillin-streptomycin (Invitrogen, cat. 15140122), and 2.5% Matrigel (Corning Inc., Corning, NY, cat. 354248) for the first three passages. All PDCs were cultured in complete DMEM/F-12 media containing advanced DMEM/F-12 (Invitrogen, cat. 12634028), 4.9% defined fetal bovine serum, heat inactivated (HyClone Laboratories Inc., Logan, UT, cat. SH30070.03HI), 389 ng/mL hydrocortisone (Sigma-Aldrich, cat. H4001), 9.7 ng/mL human EGF recombinant protein (Invitrogen, cat. PHG0313), 23.4 microg/mL adenine (Sigma-Aldrich, cat. A2786), 97.3 U/mL penicillin-streptomycin (Invitrogen, cat. 15140122), 1.9 mM L-glutamine (Invitrogen, cat. 25030081), and 9.7 microM Y-27632 dihydrochloride (Tocris Bioscience, Bristol, United Kingdom, cat. 1254). The PDCs were cultured in complete DMEM/F12 media without 10 microM Y-27632 dihydrochloride for at least two passages prior to the screen. The established cell lines NCI-H1341 and […] were cultured in DMEM/F-12, HEPES (Invitrogen, cat. 11330032), 5% defined fetal bovine serum (HyClone Laboratories Inc., cat. SH30070.03), ITS premix universal culture supplement [insulin (5 microg/mL), transferrin (5 microg/mL), and selenious acid (5 ng/mL)] […]

Measured: viability, T/C

Cc1ccccc1N=Nc1ccc(NC(=O)c2ccnn2C)c(C)c1
inactive: compound 0.1 µM 100% (2×) and 98.6% and 99.5% | compound 0.316 µM 107% (2×) and 103% | compound 1 µM 101% | compound 3.16 µM 104% and 107% | compound 10 µM 111%

Cc1cncc(-c2nc(NCCc3c[nH]c4ccccc34)c3ncn(C(C)C)c3n2)c1
inactive: compound 0.1 µM 102% and 105% | compound 0.316 µM 106% and 102% and 99.6% | compound 1 µM 97.2% [middle of 5 runs] | compound 3.16 µM 85.6% [middle of 5 runs] | compound 10 µM 24.1% and 14.2%

CC(CO)NC(=O)c1cc(-c2ccc(Cl)cc2)nn(-c2cnn(C)c2)c1=O (stereo not given)
inactive: compound 0.1 µM 104% | compound 0.316 µM 111% | compound 1 µM 116% | compound 3.16 µM 111% | compound 10 µM 100% [middle of 4 runs]
